# Results as given in patent US9918989B2, “Combination therapies for malaria” (The Regents of the University of California, priority 2013, dated 2018).
# For at least one compound, name, drawing or mass did not settle the structure.
# What was measured:
# [1] = test system: Plasmodium falciparum; assay: P. falciparum development (oocysts) in A. stephensi after inhibitor-supplemented bloodmeal; type: in vivo, Anopheles stephensi; conditions: single dose 10 μM in infected bloodmeal, two cohorts (n=50)
# Method: Midguts were dissected and oocysts were counted at 10 days following infection. Dots in FIG. 3A and FIG. 3C represent oocyst numbers in one midgut, while percentage positive midguts or percentage of midguts with at least one oocyst are represented as means in FIG. 3B and FIG. 3D. Mean oocysts per midgut (lines, numbers on graph) were analyzed by ANOVA (alpha=0.05) for overall significance and by Student-Neuman-Keuls for pairwise comparisons using Graphpad Prism version 4.0 (San Diego, Calif.). Prevalences of mosquito infection (indicated on graph) were analyzed by chi-square (alpha=0.05).
# [2] = test system: anti-parasite genes; assay: Midgut expression of anti-parasite/immune genes, quantitative PCR; type: in vivo, Anopheles stephensi; conditions: 10 μM SP600125 in bloodmeal (FIG. 7)
# [3] = test system: malaria; conditions: Anand et al. 2013; cited from earlier work
structure (smiles),measurement,setting,value
"Oc1c2ccccc2c2c3c(cccc13)N=N2 [SP600125, 1;9-Pyrazoloanthrone]",infection intensity (mean oocysts in mosquitoes with at least one oocyst),[1],reduced
same,prevalence (%) of P. falciparum infection,[1],reduced
same,expression of immune genes in the mosquito midgut,[2],enhanced expression
same,effect on parasitemia,[3],without an effect on parasitemia
same,malaria disease severity,[3],reduce malaria disease severity
